Measurements reported in PubChem BioAssay AID652243 (Drosophila RNAi Screening Center, 2013).
Screen: 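Knock-downs that decrease or increase androgen receptor reporter signal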 (primary screen). Cell system: Drosophila S2R+ cells. Reagents: long dsRNA against Drosophila genes. Time to read-out: 72 h (48 h, then 24 h hormone). Conditions: synthetic androgen R1881 at 10 nM for 24 h. Measurement: 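Per-well raw luminescence of the androgen-driven firefly reporter and of the Renilla control, two replicates each, without normalisation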. Scale: firefly reporter light: higher = more light from androgen-responsive reporter; Renilla control light: higher = more constitutive control signal (cell number, transfection). Active means: 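Across duplicate plates, a knock-down whose log firefly/Renilla ratio shifted a set fold down or up from the GFP/LacZ control mean was a hit; the downward cut appears as both 1.5 and 3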. Meaning of the calls: active = hit: reporter lowered or raised; inactive = no hit.
In all, the deposit lists about 24,000 reagents; shown is an unselected part of those with a known target gene and a result. In the full data, 246 (1%) got an active call. 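Plates not normalised; calls are printed but the firefly/Renilla ratio behind them is not deposited; fold cut for lowering reported inconsistently.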 Raw values vary from plate to plate and are shown uncorrected. Reagents against one gene are numbered here. No sequences are given here. The record does not give: the amount of reagent.

The opening 2 entries, ahead of the listing:
ear (ENL/AF9-related) #1: firefly reporter light, replicate 1 = 50328; firefly reporter light, replicate 2 = 77601; Renilla control light, replicate 1 = 6.91e5; Renilla control light, replicate 2 = 7.99e5; activity call = inactive
ear (ENL/AF9-related) #2: firefly reporter light, replicate 1 = 4.74e5; firefly reporter light, replicate 2 = 5.82e5; Renilla control light, replicate 1 = 4.12e5; Renilla control light, replicate 2 = 5.79e5; activity call = inactive

Results, from the start:
ear (ENL/AF9-related) #1: firefly reporter light, replicate 1 = 50328; firefly reporter light, replicate 2 = 77601; Renilla control light, replicate 1 = 6.91e5; Renilla control light, replicate 2 = 7.99e5; activity call = inactive
ear (ENL/AF9-related) #2: firefly reporter light, replicate 1 = 4.74e5; firefly reporter light, replicate 2 = 5.82e5; Renilla control light, replicate 1 = 4.12e5; Renilla control light, replicate 2 = 5.79e5; activity call = inactive
CG4382 #1: firefly reporter light, replicate 1 = 2.75e5; firefly reporter light, replicate 2 = 2.09e5; Renilla control light, replicate 1 = 2.14e6; Renilla control light, replicate 2 = 1.62e6; activity call = inactive
CG4382 #2: firefly reporter light, replicate 1 = 6.95e5; firefly reporter light, replicate 2 = 1.10e6; Renilla control light, replicate 1 = 1.74e6; Renilla control light, replicate 2 = 1.74e6; activity call = inactive
CG7914 #1: firefly reporter light, replicate 1 = 1.45e5; firefly reporter light, replicate 2 = 75704; Renilla control light, replicate 1 = 4.63e5; Renilla control light, replicate 2 = 2.36e5; activity call = inactive
CG7914 #2: firefly reporter light, replicate 1 = 4.03e5; firefly reporter light, replicate 2 = 4.93e5; Renilla control light, replicate 1 = 1.19e6; Renilla control light, replicate 2 = 1.24e6; activity call = inactive
CG7006: firefly reporter light, replicate 1 = 83063; firefly reporter light, replicate 2 = 69858; Renilla control light, replicate 1 = 4.84e5; Renilla control light, replicate 2 = 5.53e5; activity call = inactive
CG30398: firefly reporter light, replicate 1 = 99605; firefly reporter light, replicate 2 = 95426; Renilla control light, replicate 1 = 2.92e5; Renilla control light, replicate 2 = 2.21e5; activity call = inactive
Hipk (Homeodomain interacting protein kinase) #1: firefly reporter light, replicate 1 = 48096; firefly reporter light, replicate 2 = 55885; Renilla control light, replicate 1 = 2.97e5; Renilla control light, replicate 2 = 3.37e5; activity call = active
Hipk (Homeodomain interacting protein kinase) #2: firefly reporter light, replicate 1 = 6.02e5; firefly reporter light, replicate 2 = 5.60e5; Renilla control light, replicate 1 = 1.49e6; Renilla control light, replicate 2 = 1.73e6; activity call = inactive
Hipk (Homeodomain interacting protein kinase) #3: activity call = inactive
Hipk (Homeodomain interacting protein kinase) #4: activity call = inactive
CG5292 #1: firefly reporter light, replicate 1 = 1.18e5; firefly reporter light, replicate 2 = 1.35e5; Renilla control light, replicate 1 = 2.51e6; Renilla control light, replicate 2 = 2.83e6; activity call = inactive
CG5292 #2: firefly reporter light, replicate 1 = 3.14e5; firefly reporter light, replicate 2 = 3.19e5; Renilla control light, replicate 1 = 6.63e5; Renilla control light, replicate 2 = 6.95e5; activity call = inactive
Or85d (Odorant receptor 85d) #1: firefly reporter light, replicate 1 = 91355; firefly reporter light, replicate 2 = 1.30e5; Renilla control light, replicate 1 = 2.72e6; Renilla control light, replicate 2 = 2.03e6; activity call = inactive
Or85d (Odorant receptor 85d) #2: firefly reporter light, replicate 1 = 2.68e5; firefly reporter light, replicate 2 = 3.50e5; Renilla control light, replicate 1 = 6.15e5; Renilla control light, replicate 2 = 6.27e5; activity call = inactive
Gpo2 (Glycerophosphate oxidase 2): firefly reporter light, replicate 1 = 2.82e5; firefly reporter light, replicate 2 = 2.24e5; Renilla control light, replicate 1 = 1.70e6; Renilla control light, replicate 2 = 1.06e6; activity call = inactive
CG9926 #1: firefly reporter light, replicate 1 = 1.02e5; firefly reporter light, replicate 2 = 81470; Renilla control light, replicate 1 = 4.40e5; Renilla control light, replicate 2 = 5.68e5; activity call = inactive
CG9926 #2: firefly reporter light, replicate 1 = 1.01e6; firefly reporter light, replicate 2 = 6.97e5; Renilla control light, replicate 1 = 1.50e6; Renilla control light, replicate 2 = 1.17e6; activity call = inactive
GM130 (Golgi matrix protein 130 kD): firefly reporter light, replicate 1 = 9.44e5; firefly reporter light, replicate 2 = 8.55e5; Renilla control light, replicate 1 = 1.54e6; Renilla control light, replicate 2 = 1.33e6; activity call = inactive
Ugt37A3 (UDP-glycosyltransferase family 37 member A3): firefly reporter light, replicate 1 = 1.87e5; firefly reporter light, replicate 2 = 2.58e5; Renilla control light, replicate 1 = 2.52e6; Renilla control light, replicate 2 = 2.84e6; activity call = inactive
